Measurements reported in article PMC11380452.
These are yes or no findings as the source states them, for the method shown. In cells and extracts the contact can be indirect. Some binding calls cover weakened binding; strength is not graded here.

By UniProt entry, the sequences of proteins in these tests, tags left out.
UniProt P53804: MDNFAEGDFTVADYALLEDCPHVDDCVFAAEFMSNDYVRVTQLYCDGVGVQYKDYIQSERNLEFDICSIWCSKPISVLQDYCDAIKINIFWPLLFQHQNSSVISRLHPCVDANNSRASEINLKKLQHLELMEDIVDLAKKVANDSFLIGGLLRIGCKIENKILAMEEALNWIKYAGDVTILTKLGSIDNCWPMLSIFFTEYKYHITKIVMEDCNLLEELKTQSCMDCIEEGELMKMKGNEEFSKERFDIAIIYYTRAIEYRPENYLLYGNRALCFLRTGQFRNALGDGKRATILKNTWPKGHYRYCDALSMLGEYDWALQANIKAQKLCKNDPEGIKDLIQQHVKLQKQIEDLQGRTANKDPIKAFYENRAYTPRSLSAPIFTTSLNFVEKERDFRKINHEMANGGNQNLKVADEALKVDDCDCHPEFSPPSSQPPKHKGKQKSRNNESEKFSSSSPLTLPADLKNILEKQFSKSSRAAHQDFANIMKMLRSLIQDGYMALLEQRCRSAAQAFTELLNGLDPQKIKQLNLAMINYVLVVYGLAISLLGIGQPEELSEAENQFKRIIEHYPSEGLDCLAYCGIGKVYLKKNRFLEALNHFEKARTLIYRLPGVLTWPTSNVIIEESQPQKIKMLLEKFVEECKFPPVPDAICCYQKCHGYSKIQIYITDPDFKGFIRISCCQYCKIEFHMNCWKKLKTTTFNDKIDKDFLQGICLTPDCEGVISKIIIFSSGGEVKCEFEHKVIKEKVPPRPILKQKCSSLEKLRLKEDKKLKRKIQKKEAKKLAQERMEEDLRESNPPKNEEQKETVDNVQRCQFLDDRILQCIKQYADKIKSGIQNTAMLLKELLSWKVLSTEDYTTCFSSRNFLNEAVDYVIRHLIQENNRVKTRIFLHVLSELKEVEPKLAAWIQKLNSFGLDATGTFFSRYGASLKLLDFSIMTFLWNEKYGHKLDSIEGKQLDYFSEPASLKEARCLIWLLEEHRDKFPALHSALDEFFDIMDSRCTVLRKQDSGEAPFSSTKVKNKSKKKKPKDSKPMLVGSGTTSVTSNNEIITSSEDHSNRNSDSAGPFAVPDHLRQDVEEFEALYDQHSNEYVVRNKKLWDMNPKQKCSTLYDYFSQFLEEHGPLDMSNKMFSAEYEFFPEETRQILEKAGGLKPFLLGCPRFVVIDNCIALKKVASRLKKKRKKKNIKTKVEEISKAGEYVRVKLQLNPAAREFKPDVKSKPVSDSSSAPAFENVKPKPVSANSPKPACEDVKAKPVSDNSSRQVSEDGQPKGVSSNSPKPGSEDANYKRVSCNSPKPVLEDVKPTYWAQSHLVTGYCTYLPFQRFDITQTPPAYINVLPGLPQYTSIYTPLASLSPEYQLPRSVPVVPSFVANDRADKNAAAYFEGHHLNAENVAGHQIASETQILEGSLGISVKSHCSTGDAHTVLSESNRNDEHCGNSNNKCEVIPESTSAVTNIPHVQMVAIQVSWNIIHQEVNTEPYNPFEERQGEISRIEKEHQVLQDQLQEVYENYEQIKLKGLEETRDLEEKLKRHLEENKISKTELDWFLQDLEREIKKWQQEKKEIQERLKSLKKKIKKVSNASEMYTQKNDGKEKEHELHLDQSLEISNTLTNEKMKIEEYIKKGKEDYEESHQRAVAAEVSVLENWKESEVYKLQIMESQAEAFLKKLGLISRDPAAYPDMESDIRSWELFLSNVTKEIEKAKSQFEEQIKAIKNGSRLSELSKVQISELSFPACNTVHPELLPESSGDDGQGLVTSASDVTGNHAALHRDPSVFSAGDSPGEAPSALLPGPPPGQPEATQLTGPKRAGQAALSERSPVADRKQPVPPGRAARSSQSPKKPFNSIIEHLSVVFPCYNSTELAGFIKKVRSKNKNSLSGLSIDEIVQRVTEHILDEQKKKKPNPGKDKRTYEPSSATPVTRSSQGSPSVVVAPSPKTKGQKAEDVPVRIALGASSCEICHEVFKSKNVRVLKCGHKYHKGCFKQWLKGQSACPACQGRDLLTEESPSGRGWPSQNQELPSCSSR
UniProt P55884: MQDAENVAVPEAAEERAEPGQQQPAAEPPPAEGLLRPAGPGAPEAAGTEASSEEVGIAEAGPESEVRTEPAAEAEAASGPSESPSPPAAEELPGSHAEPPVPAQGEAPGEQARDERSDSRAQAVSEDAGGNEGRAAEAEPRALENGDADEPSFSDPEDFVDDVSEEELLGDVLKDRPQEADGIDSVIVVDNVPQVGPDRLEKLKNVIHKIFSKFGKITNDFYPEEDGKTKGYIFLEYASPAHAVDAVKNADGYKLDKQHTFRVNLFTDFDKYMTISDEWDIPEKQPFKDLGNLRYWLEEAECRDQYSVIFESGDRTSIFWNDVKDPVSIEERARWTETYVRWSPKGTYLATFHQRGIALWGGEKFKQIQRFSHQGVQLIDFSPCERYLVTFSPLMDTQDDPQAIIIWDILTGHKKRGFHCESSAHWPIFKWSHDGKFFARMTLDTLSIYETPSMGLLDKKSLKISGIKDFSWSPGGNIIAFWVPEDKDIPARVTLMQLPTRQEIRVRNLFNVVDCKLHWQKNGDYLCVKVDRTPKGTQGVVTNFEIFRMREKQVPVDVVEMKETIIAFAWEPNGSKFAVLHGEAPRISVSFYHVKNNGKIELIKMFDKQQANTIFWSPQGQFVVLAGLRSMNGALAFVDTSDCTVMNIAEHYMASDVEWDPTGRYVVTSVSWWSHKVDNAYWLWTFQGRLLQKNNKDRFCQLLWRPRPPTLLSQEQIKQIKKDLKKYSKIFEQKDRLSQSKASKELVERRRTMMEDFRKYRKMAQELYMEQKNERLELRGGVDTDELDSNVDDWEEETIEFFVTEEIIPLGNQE

Molecular target: His-TTC3 (UniProt P53804)
Experiment: co-IP; DU145 (and PC-3) cells transfected with tagged plasmids; lysate, specific antibody, Protein A/G magnetic beads, low pH elution, Western blot

In the case of HA-EIF3b (from UniProt P55884 1-814), the binding is reported as “binds”.
